Where no end group is shown, it is not given here. [ ]: non-standard residue; d: D form. Cit = NC(=O)NCCC[C@H](N)C(=O)O
The substances below were run on RA sera (assay: IgG response to cyclic citrullinated FBG peptides in RA and control sera). Conditions: RA sera n=20, positivity by 95th percentile of the normal group.
Format: binding, human
Description: (A) Peptides with sequences corresponding to the amino acid sequence of FBG were designed, with the addition of cysteine residues at the amino and carboxy termini and the exchange of arginine for citrulline residues at positions identified by LC-MS/MS. (B) IgG response to citrullinated FBG peptides and arginine containing control peptides in patients with rheumatoid arthritis (RA; n=20) and healthy controls (n=20). The 95th percentile of the control sera was used to determine positivity (dashed line). Mann-Whitney U test was used to calculate p values for differences between groups (n.s.=no significant difference, *=p<0.05 and **=p<0.01, ***=p<0.001, […]).
With reference to FIG. 31, the antibody response in 20 RA and 20 control sera to 6 cyclic FBG peptides, encompassing citrulline residues was evaluated.

Substance | RA patients positive for the epitope
CEMKL-Cit-PSNF-Cit-NLEGRRKRC [CIT209/214] | 20%
CEMKLRPSNFRNLEG-Cit-Cit-KRC [CIT219/220] | 30%
CVFLRRKNG[Cit]ENFYQNWC (cysteine pairing not given here) [CIT55] | about 35%
